The match of structure and compound is tentative.

The chains behind the UniProt entries cited, without tags or fusion partners. Residues count along the entry.
UniProt O14965, 123-403 limits assumed: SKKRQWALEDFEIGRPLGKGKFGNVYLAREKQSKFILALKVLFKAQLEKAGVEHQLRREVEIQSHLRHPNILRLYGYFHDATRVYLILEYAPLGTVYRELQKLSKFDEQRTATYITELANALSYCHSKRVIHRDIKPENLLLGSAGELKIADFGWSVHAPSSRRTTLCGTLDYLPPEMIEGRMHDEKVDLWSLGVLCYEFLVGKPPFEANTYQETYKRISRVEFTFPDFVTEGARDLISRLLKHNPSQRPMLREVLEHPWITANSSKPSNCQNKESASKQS

The target of the assay is AURKA-TPX2 interaction (His-tagged AURKA123–403 / TAMRA-labelled TPX2 1–43) (Homo sapiens, UniProt O14965). Briefly: Fluorescence anisotropy (FA) competition assay: displacement of TAMRA-TPX2 1-43 from AURKA123-403. Particulars: read-out: Ki from FA competition assay; free-concentration corrected Cheng-Prusov equations. (Fluorescence polarisation rises when a labelled molecule tumbles more slowly, as on binding a larger partner.)

One may read the Ki as the dissociation constant of the complex between target and ligand, obtained from inhibition or displacement. Regarding `Nc1ccccc1C(=O)O`, the inhibitory constant (Ki) was over 500 µM.

(Values after article PMC4919790, “Allosteric modulation of AURKA kinase activity by a small-molecule inhibitor of its protein-protein interaction with TPX2” (Scientific Reports, 2016).)
